# Reference: patent publication CN117700558A
# Protein sequences, listed by entry. Tags and fused reporters are not part of them.
# UniProt Q9NZD1: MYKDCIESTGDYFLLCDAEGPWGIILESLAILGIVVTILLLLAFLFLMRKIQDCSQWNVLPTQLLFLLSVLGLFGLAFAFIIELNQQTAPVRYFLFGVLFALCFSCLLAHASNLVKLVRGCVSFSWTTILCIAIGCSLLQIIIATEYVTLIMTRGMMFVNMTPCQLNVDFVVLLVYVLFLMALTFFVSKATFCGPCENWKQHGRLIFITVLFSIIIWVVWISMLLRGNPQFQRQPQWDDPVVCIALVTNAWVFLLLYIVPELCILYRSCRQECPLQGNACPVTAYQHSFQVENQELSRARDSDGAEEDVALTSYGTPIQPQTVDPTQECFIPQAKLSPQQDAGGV
# These are yes or no findings as the source states them, for the method shown. Some binding calls cover weakened binding; strength is not graded here.
# Biological target: GPRC5D (reagent of the screening ELISA) (UniProt Q9NZD1)
# Test: ELISA affinity screen after DNA and cell immunisation of BALB/c mice (anti-human Fc capture, OD450)
row,binding,Binder
1,binds,"ICA2002-18D8C7-1-hIgG1 (antibody, V domains shown) VH: EVQLVESGGDLVKPGGSLKLSCAASGFTFSNYGMSWVRQTPDKRLEWVATISNGGSYTYYPDNVKGRFTISRDNAKNTLYLQMSSLKSEDTATYYCARHAWDYWGQGTTLTVSS VL: QIVLTQSPAIMSAFPGEKVTMTCNASSSVSYMYWYQQKSGTSPKRWIYDTSKLASGVPARFSGSGSGTSYSLTISIMEAEDAATYYCQHWSTNPLTFGAGTKLELK"
2,binds,"ICA2002-50A5-1-hIgG1 (antibody, V domains shown) VH: EVQLQQSGPELVKPGASVKISCKASGFSFTGYTMNWVKQTHGKNLEWIGLINPYTGGTTYKQKFKGKATLTVDKSSNTAYMELLSLTSEDSAVYYCTRGGFYRYDGDYWGQGTTLTVSS VL: DIQMTQSPSSLSASLGERVSLTCRASQDIGNYLTWLQQEPDGTIKRLIYATSSLHSGVPKRFSGSRSGSDYSLTISSLESEDFVDYYCLQYSSSPWTFGGGTKLEIR"
3,binds,"ICA2002-50C1-1-hIgG1 (antibody, V domains shown) VH: EVQLQQSGPELVKPGASVKISCKASGFSFTGYTMNWVKQSHGKNLEWIGLINPYNGGTTYKQKFKGKATLTVDKSSNTAYMELLSLTSEDSAVYYCTRGGFYRYDGDYWGQGTTLTVSS VL: VIQLTQSPSSLSASLGERVSLTCRASQDIGNYLTWLQKEPNGTIKRLIYATFSLHSGVPKRFSGSRSGSDYSLTISSLESEDFVDYYCLQYSSSPWTFGGGTKLEIR"
